# Assay results as given in article PMC7819943, “Rice protein-binding microarrays: a tool to detect cis-acting elements near promoter regions in rice”.
# Amino acid sequences for entries named in this document (tags omitted).
# UniProt Q0JBA9, entry or part of it: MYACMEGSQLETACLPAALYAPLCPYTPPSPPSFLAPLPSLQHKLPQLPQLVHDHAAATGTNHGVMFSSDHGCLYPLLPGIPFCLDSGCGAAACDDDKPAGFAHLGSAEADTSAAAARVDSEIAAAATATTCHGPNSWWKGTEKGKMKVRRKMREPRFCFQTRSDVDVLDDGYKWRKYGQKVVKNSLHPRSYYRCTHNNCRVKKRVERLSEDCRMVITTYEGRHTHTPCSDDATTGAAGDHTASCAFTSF
# This is one part of the list.
# Target: OsWRKY34 (Oryza sativa, UniProt Q0JBA9 1-250)
# Assay: protein-binding microarray (RPBM); PBS, 2% BSA, 51.3 ng/ul salmon testes DNA, 50 uM zinc acetate, 200 nM TF, 25 C, 1 h; high values mean tight binding
# Settings: protein: recombinant; tags: N-terminal polyhistidine and DsRed monomer fusion (pET32a); label: CyDye5-dUTP incorporated in the synthesized complementary strand; 3' TTTTT single-stranded linker to array surface; dsDNA, one strand shown
# Outline: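 Ni–NTA purification followed expression in E. coli BL21-CodonPlus of transcription factors fused N-terminally to a polyhistidine tag and DsRed. At 200 nM in PBS with 2% BSA, salmon testes DNA and 50 µM zinc acetate, the protein was incubated for 1 h at 25 °C with a custom Agilent array that had been primer-extended with Cy5-dUTP and blocked with 2% BSA. After washing, the array was read on an Axon 4000B scanner. The binding signal is per-feature fluorescence intensity in arbitrary units.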
row,Sequence,binding signal
1,TTCTCCTCTGGGCCGCCCTATCCCACTCTCGCCCAGCATCCGGAGTCACCTAGTGCAG,10100 fluorescence intensity (a.u.)
2,GATTAGCCATGATGTAGCGTGATTCTTTCCTTGCAGGCTTCGGAGTCACCTAGTGCAG,8950 fluorescence intensity (a.u.)
3,ATCAGTAGTTCAGTACTACTTCTTCCGTTTCACAATGTAACGGAGTCACCTAGTGCAG,8130 fluorescence intensity (a.u.)
4,ATTTACCGTGGCTAAGCAAGCCCTGATCACACGTTCCACACGGAGTCACCTAGTGCAG,8060 fluorescence intensity (a.u.)
5,CGGTTTTGTCCTACGTGACAGTTGACTTGCTGAGTCAACACGGAGTCACCTAGTGCAG,9350 fluorescence intensity (a.u.)
6,TGCATGTGTTCTATTTACAGTTGATAAGTGTATTGTGTATCGGAGTCACCTAGTGCAG,9630 fluorescence intensity (a.u.)
7,CCCTTTATTTGCTTATGATTTGTATTAGTTTGGTCAATATCGGAGTCACCTAGTGCAG,11700 fluorescence intensity (a.u.)
8,CGCGCGCGTCGTCGTCTCCCTCACCACTCGCCCCGATCGACGGAGTCACCTAGTGCAG,8550 fluorescence intensity (a.u.)
9,GCAATTTTTTTTCCACGTGATACCATTCTTGTGTTTTACACGGAGTCACCTAGTGCAG,8700 fluorescence intensity (a.u.)
10,AATCTTAGTTTTGGGTTCATTTGCCAGCTTCTAATCTTCCCGGAGTCACCTAGTGCAG,11600 fluorescence intensity (a.u.)
11,GACCTTATTTGCATTGATTGACCTTATTTGCATTGATTTTCGGAGTCACCTAGTGCAG,19700 fluorescence intensity (a.u.)
12,GAAAATATTGTTAAACTGACCTTTTTTGACAGTCATCTTCCGGAGTCACCTAGTGCAG,10100 fluorescence intensity (a.u.)
13,AGCCAGTTTTCTCCACCCTCGTTTTCCGCGCACATGTTTTCGGAGTCACCTAGTGCAG,17600 fluorescence intensity (a.u.)
14,ATTTGTGTGCTCAAGGTCTGTACTTACAGTGCTCTACTTTCGGAGTCACCTAGTGCAG,8180 fluorescence intensity (a.u.)
15,CAAGTTAGTGACTGCATGGTATCTCATCCATCCATTTTCCCGGAGTCACCTAGTGCAG,9180 fluorescence intensity (a.u.)
16,CTGTTCGTCGTGTATTGCTCCCTCTGTGCACGATTTGTTTCGGAGTCACCTAGTGCAG,11600 fluorescence intensity (a.u.)
17,AGCTGCATATGTCTGTGTGTCTCAGTACCATCACAGTATCCGGAGTCACCTAGTGCAG,8270 fluorescence intensity (a.u.)
18,AACACTGCTAGTCTGTTACTCTGTTAGGCTGCTGATTTTACGGAGTCACCTAGTGCAG,8320 fluorescence intensity (a.u.)
19,TCGTTTAATCATGCTCTAACTCGTAAATTTAACTTCAAAACGGAGTCACCTAGTGCAG,8280 fluorescence intensity (a.u.)
20,TCACGTCCGTTTTTATAACTTGCTTAACAGGATCTCTATACGGAGTCACCTAGTGCAG,8030 fluorescence intensity (a.u.)
21,GAAATTTTTCCCAGTTGTTTTCATTGCTTTTGGAGAGTTTCGGAGTCACCTAGTGCAG,9670 fluorescence intensity (a.u.)
22,TTGATTTCATACCACTTTCTCTCCTTCCCGTCATTTTTTCCGGAGTCACCTAGTGCAG,8070 fluorescence intensity (a.u.)
23,CCATCACTCCGGCACCCTCATGTCCACCGCCGACGGTCGTCGGAGTCACCTAGTGCAG,9110 fluorescence intensity (a.u.)
24,TGGCAAGCAGGTCTATTTGGGTAAGTTTCATTCATGTCCACGGAGTCACCTAGTGCAG,8520 fluorescence intensity (a.u.)
25,ACTCTGCCTGCCATTCACATGATCCAACCAGTCCCCATTGCGGAGTCACCTAGTGCAG,8730 fluorescence intensity (a.u.)
26,GGCGGCTTCTTCTCTAGGGTTCGTCTCGACTCGACTCGTCCGGAGTCACCTAGTGCAG,9810 fluorescence intensity (a.u.)
27,TGCTTGCCGTTCGTTCGTGTGTGTGTGCGTGTGCGTAAGCCGGAGTCACCTAGTGCAG,11200 fluorescence intensity (a.u.)

row,Sequence,binding signal
1,ACTTTGAATTGTTTTCTTTTGGGCCTTATCCAGATACCTGCGGAGTCACCTAGTGCAG,9160 fluorescence intensity (a.u.)
2,TTCGTTCAAATCCAGGTATTTTAGCGTGCAAGTCTAGTTACGGAGTCACCTAGTGCAG,9660 fluorescence intensity (a.u.)
3,CGCCACAGATTCACACCGCCTCGCCCCAAGCCACACACACCGGAGTCACCTAGTGCAG,10400 fluorescence intensity (a.u.)
4,TCCACCACATCCCACGCTTTTTACTGCCGCACACATAAGACGGAGTCACCTAGTGCAG,8680 fluorescence intensity (a.u.)
5,GCAGCCGCCGCCACCGCCTCCTCGCACCTCGTTTCTTCCACGGAGTCACCTAGTGCAG,15100 fluorescence intensity (a.u.)
6,GGATCGAATTGCCACATAAACGCCACGTCAATGCCACATCCGGAGTCACCTAGTGCAG,8380 fluorescence intensity (a.u.)
7,AGTAGTACTCATTCAATTACAACCATCCACCACTCACTTTCGGAGTCACCTAGTGCAG,12400 fluorescence intensity (a.u.)
8,CTCCTCGCCTTCTTCTCCATCTCCATCTCGCATCTTCTCTCGGAGTCACCTAGTGCAG,11400 fluorescence intensity (a.u.)
9,TTCGATGTTGCTTTTCGACTTTCGGTTGTTGGCCGGGGATCGGAGTCACCTAGTGCAG,9370 fluorescence intensity (a.u.)
10,CTCTCTCCGTATTATAATGTATGATGCCGTTGACTTTTTGCGGAGTCACCTAGTGCAG,35200 fluorescence intensity (a.u.)
11,ATACTAATGCTACTACAGCTGTACCCTGTATATATAGTTCCGGAGTCACCTAGTGCAG,9360 fluorescence intensity (a.u.)
12,CCTCAAAATTGCAGGGGCGGAGATGGGGATGGTAGTTTACCGGAGTCACCTAGTGCAG,8620 fluorescence intensity (a.u.)
13,AACCCTGGGTTTCCGTGTCTAACGTTTGACCGTCCGCCTTCGGAGTCACCTAGTGCAG,12000 fluorescence intensity (a.u.)
14,CATCCACCTCACCGTCCGCCTGTGTGGCGCTGCTTTTTTCCGGAGTCACCTAGTGCAG,11500 fluorescence intensity (a.u.)
15,CCCACCCACCCACTGCATTCATCTCTCCTCTCTATCTCTTCGGAGTCACCTAGTGCAG,14100 fluorescence intensity (a.u.)
16,GGTGTTGACCCGGTCTTTATCCAATATGACGCTTATATGGCGGAGTCACCTAGTGCAG,9070 fluorescence intensity (a.u.)
17,ATTTGTTTGTTTTTTTAATAAATGATGTTGTTGACTTTTACGGAGTCACCTAGTGCAG,9030 fluorescence intensity (a.u.)
18,TCCGCCCGACCGCCCCTACCGCAACCTGTAGCCGCTGATGCGGAGTCACCTAGTGCAG,11100 fluorescence intensity (a.u.)
19,CGCTGCCTTCCCCGTTCCCGGTCGCCGTCGCCACCGCCGGCGGAGTCACCTAGTGCAG,10300 fluorescence intensity (a.u.)
20,GTGCTGCCTCTCGTTCATCTCCGGCCTCACCTAATAATGACGGAGTCACCTAGTGCAG,8520 fluorescence intensity (a.u.)
21,TCCCATCGCCGGCCACTATTCCTCCCCTCCACTTCAATCGCGGAGTCACCTAGTGCAG,8200 fluorescence intensity (a.u.)
22,TGGGTTCCACATATTTTTTTTAATTTTGTTCTTATTCTAACGGAGTCACCTAGTGCAG,8800 fluorescence intensity (a.u.)
23,TACATACATAGCTGTGTTCGACACTCTTTTTCCCGACCCACGGAGTCACCTAGTGCAG,9500 fluorescence intensity (a.u.)
24,GACAACCCTAAACGCCGTTCTTATAGTGTTGACTCAGCGTCGGAGTCACCTAGTGCAG,10100 fluorescence intensity (a.u.)
25,ATACACACATATCCGCGCCATTATAAATTTGACAGCATTTCGGAGTCACCTAGTGCAG,10500 fluorescence intensity (a.u.)
26,CTATTTAAGCTGATGGAGAAGGGTGGGCAATTCACTTTATCGGAGTCACCTAGTGCAG,10900 fluorescence intensity (a.u.)
27,TAGGTCAGTTCGTTCGCTTTACTTCCTGATTTCGGAAATTCGGAGTCACCTAGTGCAG,9460 fluorescence intensity (a.u.)

# Part of the list above in a different format.
row	Sequence	binding signal
5	GCAGCCGCCGCCACCGCCTCCTCGCACCTCGTTTCTTCCACGGAGTCACCTAGTGCAG	15100 fluorescence intensity (a.u.)
6	GGATCGAATTGCCACATAAACGCCACGTCAATGCCACATCCGGAGTCACCTAGTGCAG	8380 fluorescence intensity (a.u.)
7	AGTAGTACTCATTCAATTACAACCATCCACCACTCACTTTCGGAGTCACCTAGTGCAG	12400 fluorescence intensity (a.u.)
